For at least one compound, name, drawing or mass did not settle the structure.
Legend:
Elastase = Elastase activity in culture media, chromogenic substrate hydrolysis; assay type: biochemical; details: aliquots of media, five days, plain matrix = 100
Procedure: Prefabricated collagen matrices were placed in different antiproliferative drug solutions until complete saturation occurred. […] The collagen matrices were saturated with these compounds at a concentration of 25 μg/ml lyophilized, washed with 0.066 M phosphate buffer of pH 7.4 at 37° C. for 24 hours and cut in the shape of a disc with density of compound of about 5 μg/cm^2. After washing, sterile discs 15 mm in diameter were placed in a 24-well culture plate, and cells were seeded at a density of 5,000/cm^2. Five days later, cell number was counted and enzymatic activity evaluated in the aliquots of media by chromogenic substrate hydrolysis and spectrophotometry.

[1] = In vitro elution of dexamethasone from collagen matrix

Structure (SMILES)	Elastase Activity % (Elastase)	Eluted Dexamethasone Mass, cumulative ([1]; Time 0 days, 15 mm sheet in 2.5 ml phosphate buffered solution)	Eluted Dexamethasone Mass, cumulative ([1]; Time 1 days)	Eluted Dexamethasone Mass, cumulative ([1]; Time 2 days)	Eluted Dexamethasone Mass, cumulative ([1]; Time 3 days)	Eluted Dexamethasone Mass, cumulative ([1]; Time 4 days)	Eluted Dexamethasone Mass, cumulative ([1]; Time 5 days)	Eluted Dexamethasone Mass, cumulative ([1]; Time 6 days)	Eluted Dexamethasone Mass, cumulative ([1]; Time 7 days)	share of the dexamethasone elution ([1]; within the first three days)
CN(C)[C@@H]1C(O)=C(C(N)=O)C(=O)[C@@]2(O)C(O)=C3C(=O)c4c(O)cccc4[C@@](C)(O)[C@H]3C[C@@H]12 [Tetracycline]	81 ± 4%									
C[C@@H]1C[C@H]2[C@@H]3CCC4=CC(=O)C=C[C@]4(C)[C@@]3(F)[C@@H](O)C[C@]2(C)[C@@]1(O)C(=O)CO [Dexamethasone]		0 µg	211 ± 23 µg	489 ± 31 µg	605 ± 42 µg	672 ± 38 µg	725 ± 21 µg	733 ± 18 µg	745 ± 13 µg	More than 50%
